The text below walks through data of article PMC7082817.

Protein sequences, listed by entry. Tags and fused reporters are not part of them.
UniProt P06493: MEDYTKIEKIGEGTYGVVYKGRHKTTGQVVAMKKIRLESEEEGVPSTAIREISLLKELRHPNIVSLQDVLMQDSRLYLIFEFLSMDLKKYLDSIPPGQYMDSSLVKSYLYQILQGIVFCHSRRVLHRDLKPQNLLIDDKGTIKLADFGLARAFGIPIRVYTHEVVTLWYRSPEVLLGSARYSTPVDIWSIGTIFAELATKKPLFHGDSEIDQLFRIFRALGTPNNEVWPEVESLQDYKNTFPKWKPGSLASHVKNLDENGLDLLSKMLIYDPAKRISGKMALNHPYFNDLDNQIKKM

Results are given in words; binding and its absence hold for the method and conditions named. In cells and extracts the contact can be indirect. Binding calls can cover weak binding; strength is not graded here.

The target of this assay is Flag-tagged CDK1 (UniProt P06493). Briefly: co-IP; HeLa cells cotransfected 16 h with Flag-tagged CDK1 and EGFP-fused RRSPPa variants; lysate on anti-FLAG magnetic beads; Western blot with antibodies against Flag and EGFP. (In general: Immunoblotting shows a protein as a band on a membrane.)

On to “EGFP-RRSPPa (RRSP homologous protein of Photorhabdus asymbiotica fused to EGFP) (from UniProt A0ABX9SR30)”, for which the binding entry is given as “binds”.
